Literature values as cited in paper PMC8175309, “Translational CNS Steady-State Drug Disposition Model in Rats, Monkeys, and Humans for Quantitative Prediction of Brain-to-Plasma and Cerebrospinal Fluid-to-Plasma Unbound Concentration Ratios” (The AAPS Journal, 2021).

Assays:
[1] = in vivo; cited from earlier work
[2] = *8 ref Uchida et al. (31); cited from earlier work

Row | Compound | Kp,uu,CSF Rat [1] | Kp,uu,brain Rat [1] | Kp,uu,brain Monkey [2]
1 | CN1C(=O)CN=C(c2ccccc2)c2cc(Cl)ccc21 [Diazepam] | 0.78 0.847 | 1.07 0.805 | 0.877
2 | CN1CC[C@]23c4c5ccc(O)c4O[C@H]2[C@@H](O)C=C[C@H]3[C@H]1C5 [Morphine] | 0.4 | 0.150 | 
